From PMC5841288 come the findings set out here.

Sequences of proteins named here, by UniProt entry; tags and fusion partners are left off. A change or cut given only in a name is not applied to a line headed by its entry.
UniProt Q96J02: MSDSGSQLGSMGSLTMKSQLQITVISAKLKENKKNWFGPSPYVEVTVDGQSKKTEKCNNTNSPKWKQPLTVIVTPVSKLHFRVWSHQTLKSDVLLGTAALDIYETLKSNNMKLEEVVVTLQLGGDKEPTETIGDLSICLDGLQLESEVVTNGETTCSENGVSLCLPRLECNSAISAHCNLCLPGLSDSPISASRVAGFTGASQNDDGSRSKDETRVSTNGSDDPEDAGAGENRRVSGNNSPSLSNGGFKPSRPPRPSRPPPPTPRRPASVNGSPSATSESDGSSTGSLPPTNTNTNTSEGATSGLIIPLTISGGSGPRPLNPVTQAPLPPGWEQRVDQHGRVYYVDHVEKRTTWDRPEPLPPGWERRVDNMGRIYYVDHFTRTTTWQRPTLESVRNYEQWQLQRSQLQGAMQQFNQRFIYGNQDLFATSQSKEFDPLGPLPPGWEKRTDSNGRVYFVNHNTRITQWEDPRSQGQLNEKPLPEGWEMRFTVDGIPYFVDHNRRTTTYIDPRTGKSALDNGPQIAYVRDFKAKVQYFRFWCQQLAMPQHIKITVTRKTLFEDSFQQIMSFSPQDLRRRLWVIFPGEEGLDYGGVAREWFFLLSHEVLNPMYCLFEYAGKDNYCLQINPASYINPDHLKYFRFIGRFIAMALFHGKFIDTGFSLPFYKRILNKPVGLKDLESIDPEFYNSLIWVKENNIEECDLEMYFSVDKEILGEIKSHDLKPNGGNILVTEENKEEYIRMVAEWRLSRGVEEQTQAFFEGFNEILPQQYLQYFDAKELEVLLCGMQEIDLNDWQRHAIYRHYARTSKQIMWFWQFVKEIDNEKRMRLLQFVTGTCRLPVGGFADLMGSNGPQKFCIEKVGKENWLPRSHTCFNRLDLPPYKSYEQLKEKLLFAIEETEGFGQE
UniProt P32121: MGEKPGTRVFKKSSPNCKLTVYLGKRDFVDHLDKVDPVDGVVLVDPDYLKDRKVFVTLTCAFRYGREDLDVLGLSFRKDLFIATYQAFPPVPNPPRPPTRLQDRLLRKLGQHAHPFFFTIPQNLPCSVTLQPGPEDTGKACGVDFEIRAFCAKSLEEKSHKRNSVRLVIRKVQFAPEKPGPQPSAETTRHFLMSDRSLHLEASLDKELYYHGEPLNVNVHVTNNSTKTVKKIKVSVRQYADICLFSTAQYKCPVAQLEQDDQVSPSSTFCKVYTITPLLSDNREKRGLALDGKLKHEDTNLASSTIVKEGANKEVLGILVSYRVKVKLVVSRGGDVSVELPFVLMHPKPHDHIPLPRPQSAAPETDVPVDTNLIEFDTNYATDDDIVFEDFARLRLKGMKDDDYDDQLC

Results are given in words; binding and its absence hold for the method and conditions named. Binding seen in cells or lysates may run through a third protein. Binding can be weak; no strength is given.

This test concerns the target Itch (UniProt Q96J02). Description: co-IP; HEK293T cells co-transfected with the indicated plasmids, with or without Itch.

“β-arrestin2 (transfected, Fig. 5e) (from UniProt P32121 1-409)”: the binding result is recorded as “binds”.
